The other results are listed elsewhere or left out.

In this test the test system is T1, CTL2-GFP (C. trachomatis L2/434/Bu, GFP-expressing).
T1 construct: L2/434/Bu, GFP-expressing
Further details: species or system HeLa; Intracellular C. trachomatis growth in HeLa cells, bulk GFP fluorescence relative to DMSO. As to conditions: bulk GFP, single well; 28.5 h, 10 µM; inhibitor.
As for `O=C([C@@H]1Cc2c([nH]c3ccccc23)C2(CCN(Cc3ccccc3)C2)N1)N1CCOCC1` (stereo partly shown) [CBK059363T], the “% of control remaining” value is 115.939%.
With `CSc1ccc(-c2nccnc2OCCN(C(C)C)C(C)C)cc1` [CBK106805], the “% of control remaining” value stood at 83.6715%.
Consider `CCSc1nc(-c2ccncc2)ccc1C#N` [CBK288539], for which the “% of control remaining” value is 110.981%.
On to `Cc1ccc2oc(-c3cccc(NC(=O)c4ccccc4C(=O)O)c3)nc2c1` [CBK300481], for which the “% of control remaining” value came out at 132.76%.
Regarding `NC(=O)c1cccc(-c2nccnc2N2CCN(CCO)CC2)c1` [CBK036726], the “% of control remaining” value is listed as 135.869%.
On to `CN(C)CCN(C)C(=O)c1ccc(-c2cccc(Cl)c2Cl)nc1N(C)C` [CBK106082], for which the “% of control remaining” value is recorded as 100%.
Turning to `CCN(CC)C(=O)C1CCCN(C(=O)NC2CCc3ccccc32)C1` (stereo not shown) [CBK156156], the “% of control remaining” value is 115.05%.
For `Oc1cccc(OCCOc2nc3ccccc3nc2N2CCCC2)c1` [CBK115901], the “% of control remaining” value is 107.859%.
For the compound `CCn1cc(C(=O)N2CCc3sccc3C2)c(=O)c2ccc(C)nc21` [CBK305006], the “% of control remaining” value is recorded as 124.011%.
Consider `CC(=O)N1CCc2c([nH]c3c(C)cccc23)C12CCCN(CCCC#N)C2` (stereo not shown) [CBK039705], for which the “% of control remaining” value was found to be 113.691%.
Turning to `CC(C)(CNC(=O)Cn1cccc(C(=O)NC2CCCCC2)c1=O)c1cccc(F)c1` [CBK286069], the “% of control remaining” value is on record as 124.546%.
For `Cn1c(=O)c2c(ncn2CC(=O)Nc2ccc(OCc3ccccc3)cc2)n(C)c1=O` [CBK130478], the “% of control remaining” value worked out at 100%.
For the compound `O=C(O)c1ccccc1-c1ccccc1C(=O)Nc1ccccc1-c1ccccc1` [CBK262843], the “% of control remaining” value stood at 100%.
For `Cc1nc(C2CCCN(C(=O)C3CCC3)C2)nc2c1CCCN2Cc1ccccc1` (stereo not shown) [CBK286257] the value was 104.043%.
Take `CCc1nn(CC(=O)N(C(C)C)C(C)C)c(=O)c2cc3occc3n12` [CBK283658]: the “% of control remaining” value amounted to 110.849%.
Regarding `Nc1ccc(Cl)cc1C(O)(CCCN1CCCCC1)c1ccccc1` (stereo not shown) [CBK023107], the “% of control remaining” value stood at 143.697%.
In the case of `CC(=O)CSc1nsc(SCC(C)=O)n1` [CBK006702], the “% of control remaining” value turned out to be 110.643%.
Regarding `Cc1cccc(-c2ncc(NC(=O)CC3OC(=O)c4ccccc43)nc2-c2ccc(N)cc2)c1` (stereo not shown) [CBK036749], the “% of control remaining” value amounted to 175.298%.
The value for `COCC1CN(C(=O)Nc2ncc(Cc3ccc(C)c(Cl)c3)s2)CCO1` (stereo not shown) [CBK306286] was 166.201%.
For `COc1ccc([C@@]23CC[C@@H](NC(=O)Nc4ncc(Cl)s4)C[C@@H]2N(C)CC3)cc1OC` [CBK051620T], the “% of control remaining” value is reported as 99.1381%.
As to `CS(=O)(=O)Nc1nccnc1OC1CCN(CCc2ccccc2)CC1` [CBK084279], the “% of control remaining” value came out at 100.459%.
In the case of `COc1cc2nc(NC(=O)C3COc4ccccc4O3)sc2cc1OC` (stereo not shown) [CBK287702], the “% of control remaining” value was determined as 116.825%.
The value for `O=C(O)c1cccc(-n2cc(-c3ccc(F)cc3F)nn2)c1` [CBK112998] was 122.238%; that for `O=C1CO[C@H]2CN(Cc3ncc[nH]3)C[C@H]2N1Cc1ccncc1` [CBK289259] was 102.182%.
As to `CCn1c(CNC(=O)c2cn3ccc(C)cc3n2)nc2ccccc21` [CBK281394], the “% of control remaining” value is 93.5846%.
As for `O=C(NCc1ccccn1)C1CCC(Cn2c(=S)[nH]c3ccccc3c2=O)CC1` (stereo not shown) [CBK266645], the “% of control remaining” value is recorded as 152.959%.
As for `CCOC(=O)c1cnn(C2CCCN(Cc3cncs3)C2)c1` (stereo not shown) [CBK304039], the “% of control remaining” value is recorded as 156.719%.
With `CC(=O)N[C@@H](Cc1c[nH]cn1)C(=O)Nc1cc2ccccc2c(Br)n1` [CBK063302], the “% of control remaining” value was 110.392%.
The value for `O=C(O)COc1c(-c2ccco2)oc2ccccc2c1=O` [CBK269262] was 141.129%.
For the compound `COc1ccccc1-c1cc(C(F)F)nc(S)c1C#N` [CBK288358], the “% of control remaining” value worked out at 122.75%.
As for `COc1ccc(C2NC(C(=O)O)C3C(=O)N(c4ccc(C)cc4)C(=O)C23)c(OC)c1` (stereo not shown) [CBK287233], the “% of control remaining” value is reported as 100%.
As for `CC(C)n1nnnc1-c1ccccc1NS(=O)(=O)C1CC1` [CBK305509], the “% of control remaining” value is reported as 148.462%.
For `c1ccc([C@@H]2CN(Cc3cccnc3)C[C@H]2c2cc[nH]n2)cc1` [CBK285160] the value was 117.714%; for `Cc1ccccc1CN1CCN(CC(=O)Nc2ccccc2C(N)=O)CC1` [CBK270296], 139.102%.
With `CCCC/C=C/c1cnc2[nH]c(=O)n(Cc3ccccn3)c2n1` [CBK064365], the “% of control remaining” value was 145.901%.
For `CN(C)CCN(C)C(=O)c1ccc(-c2cccc(C(=O)NCCO)c2)nc1NCC1CC1` [CBK076603] the value was 97.9964%; for `CC[C@H](Cn1c(=O)oc2ccccc21)NC(=O)C1CCCC1` [CBK284542], 93.4741%; for `COc1cccc2cc([C@H]3CN(C(=O)C(C)(C)N)C[C@@H]3C(=O)N3CCC4(CC3)CN(S(C)(=O)=O)c3ccccc34)oc12` [CBK001347C], 126.237%.
For the compound `Cc1ccc(-c2nccnc2OCc2ccccc2)cc1C` [CBK106861], the “% of control remaining” value came to 107.271%.
The value for `COc1cc(CN2CCN(Cc3cccc([N+](=O)[O-])c3)CC2)cc(OC)c1` [CBK263156] was 111.413%.
As for `CC(=O)c1cccc(NC(=O)CCn2[nH]c(=O)ccc2=O)c1` [CBK306094], the “% of control remaining” value is given as 108.863%.
For `Fc1cccc(F)c1CN1CCN(CCc2ccccc2)CC1` [CBK126422] the value was 118.264%; for `CC1CCCCN1S(=O)(=O)c1cccc2nonc12` (stereo not shown) [CBK261723], 100%; for `Cc1cc(C(F)(F)F)c2c(NCc3ccoc3)n[nH]c2n1` [CBK284698], 106.793%.
On to `COc1ccc(-c2nc(NC(=O)Cc3ccc(S(C)(=O)=O)cc3)cnc2-c2cccc(C)c2)cc1` [CBK037525], for which the “% of control remaining” value turned out to be 132.848%.
Consider `CCCc1cc(CNC(=O)CN2CCCC(C)C2)on1` (stereo not shown) [CBK282045], for which the “% of control remaining” value is on record as 149.232%.
On to `COC(=O)C1ON2CCCCC2C1(O)C(F)(F)F` (stereo not shown) [CBK007430], for which the “% of control remaining” value is listed as 100.792%.
In the case of `CON=Cc1c[nH]c2ccccc12` [CBK168628], the “% of control remaining” value was determined as 155.978%.
As to `CC(=O)Nc1cccc(-c2cnc(N)c(N3CCN(C)CC3)n2)c1` [CBK063361], the “% of control remaining” value is 106.491%.
With `O=C(NCC1CCCCC1)N1CCN(c2cc(C(F)(F)F)ccn2)CC1` [CBK162323], the “% of control remaining” value was 135.51%.
As to `Cc1c(Cl)cc(C(C)C)c(O)c1CNC(=O)CSc1nnc(-c2cccs2)n1C` [CBK267416], the “% of control remaining” value was 164.011%.
For the compound `COc1cccc(C(C(F)(F)F)P(C)(=O)O)c1` (stereo not shown) [CBK262393], the “% of control remaining” value is given as 98.4927%.
As for `COc1ccnc(N2CCCN(Cc3ncc(Cl)n3C)CC2)n1` [CBK305152], the “% of control remaining” value amounted to 84.0149%.
Turning to `Cc1cc(C)cc(Nc2cc(C)n3c(=O)[nH]nc3n2)c1` [CBK288380], the “% of control remaining” value is 140.827%.
For `CS(=O)(=O)Nc1ccc(CNC(=O)c2ccc3[nH]ccc3c2)cc1` [CBK161747], the “% of control remaining” value is on record as 123.176%.
In the case of `Cc1ccc(N(CC(=O)Nc2ccc(Br)c(C)c2)S(=O)(=O)c2ccc(C)cc2)cc1` [CBK264038], the “% of control remaining” value turned out to be 100%.
`Cc1oc2c(c1C(=O)N(C)CCN1CCCCC1)CCCC2` [CBK281907]: the “% of control remaining” value is 130.657%.
With `O=S(=O)(CC(F)(F)F)Nc1ccc(N2CCNCC2)c2ccccc12` [CBK059354C], the “% of control remaining” value turned out to be 96.9186%.
As for `C=CCOc1c(Br)cc(CNc2cccc(C(=O)O)c2)cc1OC` [CBK074581], the “% of control remaining” value is reported as 119.875%.
For `CC(C)Nc1nccnc1OCCc1c[nH]c2ccccc12` [CBK115647] the value was 141.472%; for `O=c1cc(O)c2sc3nc(-c4ccco4)cc(C(F)(F)F)c3c2[nH]1` [CBK270223], 155.58%.
Turning to `Cc1cc(C)n2nc(SCc3nc4sc(C(=O)O)c(C)c4c(=O)[nH]3)nc2n1` [CBK297482], the “% of control remaining” value was 124.375%.
For `O=C(Cc1csc(-c2c(Cl)cccc2Cl)n1)NC[C@H]1CC[C@H](C(=O)O)CC1` [CBK299767] the value was 153.756%.
As to `Cc1ccc(-n2ncc3c(=O)n(CC(=O)Nc4ccc(C)cc4C)cnc32)cc1` [CBK287535], the “% of control remaining” value worked out at 132.366%.
`Cc1cc(C)n(C(=O)CCNS(=O)(=O)c2ccc(Cl)cc2)n1` [CBK269348]: the “% of control remaining” value is 106.311%.
Regarding `NC(=O)CCN1CCc2ccccc2C1` [CBK138325], the “% of control remaining” value is 102.64%.
In the case of `CN1CCCC(C(O)c2ccccc2)C1` (stereo not shown) [CBK012472], the “% of control remaining” value is 147.691%.
For `O=C(c1ccc2c(c1)OCCO2)N1CCC2(CCN(C(=O)c3cc(F)c(F)cc3F)C2)C1` (stereo not shown) [CBK131410], the “% of control remaining” value was found to be 118.791%.
As to `Cc1ccc(-c2ncc(OCCN3CCCC3=O)nc2N)c(C)c1` [CBK145127], the “% of control remaining” value worked out at 191.652%.
With `COc1ccc([C@H]2CN(Cc3ccccc3)C[C@@H]2NC(=O)c2ccco2)cc1OC` [CBK286478], the “% of control remaining” value was found to be 105.919%.
For `O=C(c1[nH]c2ccccc2c1NS(=O)(=O)/C=C/c1ccccc1)N1CCOCC1` [CBK050068] the value was 76.9495%.
`Cn1cc(CCNC(=O)N2CCN(Cc3ccsc3)CC2)cn1` [CBK305692]: the “% of control remaining” value is recorded as 108.239%.
Take `O=C(NCC(c1ccccc1)c1ccccc1)N1CCCCC1CO` (stereo not shown) [CBK156186]: the “% of control remaining” value is 100.739%.
For the compound `CN(C)S(=O)(=O)N1CCN(Cc2ccccc2)CC1` [CBK263638], the “% of control remaining” value is recorded as 131.118%.
As for `CC1CCc2noc(C3CCN(C(=O)c4ccnn4C)CC3)c2C1` (stereo not shown) [CBK285232], the “% of control remaining” value was 106.416%.
Take `COc1ccc(NC(=N)Nc2nc(=O)cc(CSc3nc4ccccc4s3)[nH]2)cc1` [CBK266256]: the “% of control remaining” value worked out at 204.662%.
As for `O=C(O)CCc1ccc(-c2ccc(F)cc2)n1-c1cc(Cl)ccc1O` [CBK131891], the “% of control remaining” value is recorded as 80.0383%.
For `Cc1c(C)n(Cc2ccco2)c2ncnc(NCC(=O)O)c12` [CBK307563], the “% of control remaining” value is 102.652%.
Regarding `c1ccc(CN2CCC[C@H]2c2nc(-c3ccc(-c4cncnc4)nc3)no2)cc1` [CBK288891], the “% of control remaining” value is given as 126.816%.

Values taken from publication PMC12040169 (PLOS Biology, 2025).
